To fix the notation:
B1: il2ra_site1_2b5i_normal_mot_HHH_b2_04910_000000118_0001_1_19_H_._HHH_b2_05178_0001_0000300014_0000001_0_af2pred_0001_af2pred (protein)
chain: SSSSSEKEEAFELFRQANELDENGDEEEAKKVLEEALELAEEANNRSLVRLIRAALRLLGSSSSS
B2: il2ra_site2_2erj_sap_24_mot_HHH_eva_0077_000000062_0001_1_20_H_._HHH_b1_07478_0001_0000700015_0000001_0_0001_af2pred_0001_af2pred (protein)
chain: SSSSDELERVVEELVEELGLDEEAKKALEASVELLEEAGIDEELAEEILEFYARSLAKQLSSSSS
B3: il2ra_site1_1z92_normal_mot_1581cc1c700002558836ca695aafbf97_0001_1_af2_000000099_0001_17_32_H_._HHH_b2_05050_0001_0000200016_0000001_0_af2pred_0001_af2pred_1 (protein)
chain: SSSSDEEVERLVEELVREFNLSEREERSLRIAAEAALRHGADPEIVERDLEHFVKFLKEKGSSSS
B4: il2ra_site1_2b5i_normal_mot_HHH_b1_08546_af2_000000241_0001_22_37_H_._HHH_b1_05082_0001_0000200016_0000001_0_af2pred_dldesign_0_af2pred (protein)
chain: SSSSSARERIEELLEEAEKLEDPKKQKKLLSKAFKIAYLLGDEEAVAEIAKRYEELEEKESSSSS
B5: il2ra_site2_2erj_normal_mot_c2bf78bdce995293a161f7082e24b401_0001_af2_000000082_0001_17_32_H_._HHH_b1_07868_0001_0000100001_0000001_0 (protein)
chain: SSSSSDEEEIRREVEELLEKVEEVPDLEEAYRLANEALRLASRLQDEELLRLILEVVQRHSSSSS
B6: il2ra_site1_2b5i_sap_9_mot_HHH_b1_04260_af2_000000087_0001_42_54_H_._0021224f6c3d8dbc6366f59e14f09300_0001_af2_0001_0000400026_0000001_0_0001 (protein)
chain: SSSSDIEERIDELAMEASRLYYRGNPEEARELLEEALELARENNDPKLEKEIEFMLRRLGSSSSS
B7: il2ra_site1_2b5i_normal_mot_HHH_b1_08543_af2_000000201_0001_1_15_H_._HHH_b1_01940_0002_0000100004_0000001_1_af2pred_dldesign_0_af2pred (protein)
chain: SSSSDEAWEEIDRLFEEAERLKREGKNEEAKKVLEKALAVAQAAGDAKAVAELTRYLELLSSSSS
B8: il2ra_site1_3nfp_normal_mot_67e1e90ad417e81182229281e7547621_0001_000000049_0001_1_15_H_._8f2fda87c81871a3aab3e6ec2ca46b51_0001_0001_0000100002_0000001_0_af2pre … (protein)
chain: TEEEVEELLELLKEKWSDDPILKRVLEIIKKLLRKNPESALLLLLRIAEDAGDPEVERKVRELLK
B9: il2ra_site2_2erj_normal_mot_HHH_b1_03107_000000098_0001_39_52_H_._HHH_b2_06291_af2_0002_0000300011_0000001_1 (protein)
chain: SSSSNEAWELAAEASIRALELFRRGNPEEARRLIEEALEEVEELNNPAALRYLEFARRDLKSSSS
B10: il2ra_site1_3nfp_normal_mot_HHH_b1_06185_af2_000000236_0001_1_19_H_._HHH_b1_03058_af2_0001_0000100016_0000001_0_af2pred_0001_af2pred_1 (protein)
chain: SSSSSEEAEELYERIREELEELAKRGDVQEVLKLANEAIRLLARLGDPELARKLLRFARELSSSS
B11: il2ra_site2_2erj_normal_mot_f45d1148d8c01955f14ecc842cbfa76e_0001_1_af2_000000069_0001_35_50_H_._HHH_b1_00942_af2_0001_0000500016_0000001_0 (protein)
chain: SSSSDERLEELYKLAVRLLRLVSEGDEEEFEKVFEELQRLIEELDSLAAKRILEHLRELLHSSSS
B12: il2ra_site2_3nfp_normal_mot_HHH_b2_05281_000000198_0001_39_56_H_._HHH_b1_05931_0002_0000400033_0000001_0 (protein)
chain: SSSSDVRERVEELLREVEKLEEEGNPEEAEKVLAEAAHLAYERGDSEAFILVAEFAFEVRQSSSS
B13: il2ra_site2_3nfp_sap_26_mot_HHH_b2_00729_000000274_0001_42_55_H_._HHH_b1_02394_0001_0000200018_0000001_0_0001 (protein)
chain: DEEAEEFAELVRQGNEEEVEEFVRELAERAGIPPEHVVFALLAVALFNGLIPPRESRELREKLQK
B14: il2ra_site1_1z92_normal_mot_3d621733409fa4d2bc95fa1761ba6d8e_0001_af2_000000005_0001_1_12_H_._HHH_b2_04933_0001_0000200013_0000001_0_af2pred_0001_af2pred_1 (protein)
chain: SSSSSEEAEEAIRLIEELNRLFHEGDEEEFEKLAEEVREFAERANNRSLEKFLELAEKSLSSSSS
B15: il2ra_site1_1z92_normal_mot_HHH_b1_07156_000000060_0001_21_38_H_._HEEHE_0071_af2_0002_0000600025_0000001_0_af2pred_0001_af2pred_1 (protein)
chain: SEEEVIERDVEKAAELAGVPSFEVHVENGTVHFTVEGDDVRARSAAKLVERLVRDAGHSVEVTTK
B16: il2ra_site2_3nfp_sap_25_mot_HHH_b1_03309_000000252_0001_1_19_H_._HHH_b1_06314_0001_0000100009_0000001_0_0001 (protein)
chain: SSSSDHEEYLEAALELVKLLLEEGDPEAARRVLELLIKAAEDNRDEEVLERAEELEEQINSSSSS
B17: il2ra_site1_3nfp_sap_13_mot_7a4252a17c26caee427851ffd8bc664f_0001_000000055_0001_1_12_H_._HHH_b1_05968_af2_0001_0000100005_0000001_0_0001_af2pred_0001_af2pred (protein)
chain: SSSSSSLKELFREVREAARRGDLEEAERLVREAIEIAEELGNEAVVKFLRSILRTIEQAKSSSSS
B18: il2ra_site2_2erj_normal_mot_HHH_b2_02500_af2_000000175_0001_19_35_H_._HHH_b1_00111_0001_0000100002_0000001_0 (protein)
chain: SSSSAEEAAEFVERDVERLLEEGDPQAAESALRLLERYAEASRSEYLREVVKELERLIEELSSSS

From publication PMC10163288 come the findings set out here.

The other results are listed elsewhere or left out.

The target in this assay is il2ra, P01589. Nature of the assay: yeast display titration.
Regarding B1, the “apparent Kd” value is “inactive: no binding seen”. Turning to B2, the “apparent Kd” value was “inactive: no binding seen”. As for B3, the “apparent Kd” value is “inactive: no binding seen”.

With B4, the “apparent Kd” value is “inactive: no binding seen”. Regarding B5, the “apparent Kd” value was “inactive: no binding seen”. For B6, the “apparent Kd” value was “inactive: no binding seen”. As to B7, the “apparent Kd” value was “inactive: no binding seen”. Consider B8, for which the “apparent Kd” value is “inactive: no binding seen”. Take B9: the “apparent Kd” value is “inactive: no binding seen”.

In the case of B10, the “apparent Kd” value was “inactive: no binding seen”. Regarding B11, the “apparent Kd” value was “inactive: no binding seen”. The result for B12 reads “inactive: no binding seen”; that for B13, “inactive: no binding seen”; that for B14, “inactive: no binding seen”. B15: the “apparent Kd” value was “inactive: no binding seen”. The same measure for B16: “inactive: no binding seen”; for B17: “inactive: no binding seen”. As to B18, the “apparent Kd” value is “inactive: no binding seen”.
